This passage reports CC50 results from ChEMBL document CHEMBL5303711, “ECBD screening data for assay EOS300108” (2023).

Active and inactive are the calls of the source. How the calls were made is not given here.

The nature of the series: Cytotoxicity activity against human HepG2 cells assessed by CellTiter-Glo luminescent cell viability assay. Format: toxicity, cell-based. On the set-up: assay stage confirmatory assay, source tissue liver. To be noted: read-out: IC50 relative. (Cellular ATP, detected with luciferase, serves as a proxy for viable cell number.)

For `Cc1ccc(C(=O)NCCCCCC(=O)Nc2ccccc2N)cc1`, the CC50 is active: 11.3 µM.
